The target in experiment [1] is T1, gD-PFD-MAD-GPI (construct c) (human) (UniProt O14791).
T1 sequence (chain, C-terminal GPI anchor): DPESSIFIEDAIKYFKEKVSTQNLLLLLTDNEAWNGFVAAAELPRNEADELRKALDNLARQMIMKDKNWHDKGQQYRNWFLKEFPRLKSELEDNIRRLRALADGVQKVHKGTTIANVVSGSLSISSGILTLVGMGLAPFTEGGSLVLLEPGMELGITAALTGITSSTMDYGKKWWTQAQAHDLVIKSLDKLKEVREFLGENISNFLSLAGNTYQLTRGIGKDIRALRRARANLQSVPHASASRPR
Kind of experiment: flow cytometry, live CHO cells expressing the construct, 5 µg/ml. For orientation: Flow cytometry measures light scatter and fluorescence of single cells or particles in a stream.

Experiment [2] has as its target APOL1-G2 (deletion of N388 and Y389) (human) (UniProt O14791). The experiment can be described thus: western blot of CHO lysates, 2.5 µg/ml. (A western blot detects proteins with antibodies after separation by electrophoresis.)
The target of experiment [3] is T2, APOL1-G1 (S342G, I384M) (human) (UniProt O14791).
T2 sequence: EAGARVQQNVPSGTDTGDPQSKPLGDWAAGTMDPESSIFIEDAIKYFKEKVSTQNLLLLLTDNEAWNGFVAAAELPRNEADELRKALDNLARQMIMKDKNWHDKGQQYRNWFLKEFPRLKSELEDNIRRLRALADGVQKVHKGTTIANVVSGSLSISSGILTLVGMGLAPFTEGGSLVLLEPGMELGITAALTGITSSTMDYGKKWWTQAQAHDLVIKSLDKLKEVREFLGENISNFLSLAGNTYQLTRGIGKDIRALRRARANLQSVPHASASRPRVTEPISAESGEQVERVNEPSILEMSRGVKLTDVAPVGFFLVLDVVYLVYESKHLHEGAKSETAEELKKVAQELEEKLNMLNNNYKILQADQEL
The experiment can be described thus: western blot of CHO lysates, 2.5 µg/ml.

Experiment [4] has as its target APOL1-G2 (deletion of N388 and Y389) (human) (UniProt O14791). Kind of experiment: western blot of transfected COS lysates, 2 µg/ml.
Experiment [5] deals with T2, APOL1-G1 (S342G, I384M) (human). The experiment can be described thus: western blot of transfected COS lysates, 2 µg/ml.
In experiment [6] the target is T3, gD-MAD-SRA-ID-GPI (construct d) (human) (UniProt O14791).
T3 sequence (chain, C-terminal GPI anchor): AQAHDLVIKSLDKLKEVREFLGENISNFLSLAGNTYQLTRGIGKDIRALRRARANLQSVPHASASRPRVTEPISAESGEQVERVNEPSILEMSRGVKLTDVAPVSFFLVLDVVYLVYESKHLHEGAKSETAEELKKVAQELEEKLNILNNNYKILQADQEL
Kind of experiment: flow cytometry, live CHO cells expressing the construct, 5 µg/ml.

Experiment [7] deals with APOL1-G2 (deletion of N388 and Y389) (human) (UniProt O14791). Kind of experiment: western blot of transfected COS lysates.
The target in experiment [8] is T2, APOL1-G1 (S342G, I384M) (human). The experiment can be described thus: western blot of transfected COS lysates.
For experiment [9] the target is unchanged. Kind of experiment: flow cytometry, live iAPOL1-G1 CHO cells; antibody named in paragraph 192.

Results are given in words; binding and its absence hold for the method and conditions named. Some entries that bind do so weakly or less than the wild type.

B1: antibody 3.7D6 (antibody, V domains shown)
VH: QIQLVQSGPDLKKPGETVKISCRTSGYAFTNYGVNWVKQAPGKGLKWMGWINTNTGQTTYAEEFRGRFAISLETSASTAFLTISNLKNEDSATYFCARLIYDGDYISSDFWGQGTTLTVSS
VL: DIQMTQSPDSLSASVGETVTITCGASENIYGALNWYQRKQGKSPQLLIYGATNLADGMSSRFSGSRSGRQYSLKISSLHPDDVATYYCQNALSMPYTFGGGTKLEIKR
As for B1, the binding entry in experiment [1], in experiment [2], in [3], in experiment [4] and in experiment [5] was “binds” each time.

B2: antibody 3.1C1 (antibody, V domains shown)
VH: QVQLQQSGPELVKPGASVRISCKASGYTFTNYFIHWVKQRPGQGLEWIGWINPGNLNTKYTEEFKGKATLTADKSSSTAYIQLNSLTSEDSAVYFCVNGNPFVYWGQGTLVTVSA
VL: DIVMTQSPSSLTVIAGEKVTLNCKSSQSLLNSGNQKKYLTWLQQKPGQPPKLLIYWTSTRDSGVPDRFTGSGSGTDFTLTISSVQAEDLAVYYCQNDYSYPLTFGAGTKLEIKR
Turning to B2, the binding entry in [6] is given as “binds”.

B3: antibody 3.3A8 (antibody, V domains shown)
VH: QVQFQQSGAELVRPGASVKVTCKALGYTFSNYEIHWVRQPPVHGLEWIGAIHPGNGVTAYNQMFKGRATLAADKSSSTAYMELSSLTSEDSAVYYCTENFDYWGQGTALTVSS
VL: DVVVTQTPLSLPVSFGDQVSISCRSSQSLTNSYGITYLSWFLLKPGQSPQLLIYEISNRFSGVPDRFSGSGSGTDFTLKISTIKPEDLGVYFCLQGTHQPFTFGAGTKLEIKR
As for B3, in experiment [6], the binding entry is given as “binds”.

B4: rabbit monoclonal antibody 5.17D12 (antibody, V domains shown)
VH: QSLEESGGDLVKPGASLTLTCTASGFSFSSNYYMCWVRQAPGKGLEWIACVYVGSGGSTYYASWAKGRFTFSKTSSTTWTLQMTSLTAADTATYFCARDLSYAGDLWGPGTLVTVSS
VL: DPVMTQTPASVSEPVGGTVTINCQASESISSYLAWYQQKPGQPPKLLIYGASNLASGVPSRFKGSGSGTEYTLTISDLECDDAATYYCQSAYYSNSGGHAFGGGTEVVVKG
Turning to B4, the binding entry in experiment [7] and in experiment [8] was “binds” each time.

B5: antibody 3.6D12 (antibody, V domains shown)
VH: EVMLVESGGGLVRPGGSLKLSCTASGFTFSRCAMSWVRQTPEKRLEWVSAISRDSTYTYYSDSVKGRFTVSRDNAKNTLYLQMSSLRSEDTAMYYCARQIDDYYVDALDYWGQGTSVTVSS
VL: DVQITQSPSYLAASPGETITINCRASKIISKYLAWYQEKPGKTIKLLIYSGFTLQSGIPSRFSGSGSGTDFTLTISSLEPEDFAMYYCQQHNEYPLTFGAGTKLEIKR
B5: the binding entry in [4] and in experiment [5] was “binds” throughout.

B6: antibody 4.17A5 (antibody, V domains shown)
VH: QVQLQQSGPELLKPGASVKISCKGSGYAFSNSWINWVKLRPGQGLEWIGRIYPGDGDTKYNGKFKGKATLTADKSSSTAHMQLRSLTSVDSAVYFCARFPFGKYEGPGAMDYWGQGTSVTVSS
VL: DIQMTQTTSSLSASLGDRVTISCRASQDISSYLNWYQQKPDGTIKLLIYYTSRLHSGVPSRFSGSGSGTDFSLTISNLEQEDIATYFCQQGNTLPYTFGGGTKLEIKR
For the molecule B6, the binding result in experiment [4] and in experiment [5] was “binds” each time.

B7: antibody 4.11H11 (antibody, V domains shown)
VH: EVQVQQSGPELVKPGASMKISCKASGYSFIVYTMNWVKQSHGKNLEWIGLINPYNGGTIYNRKFKGKATLTVDKSSSTAYLELLSLTSEDSAVYYCARGALYRYEGAMDYWGQGTSVIVSS
VL: QIVLSQFPAILSASPGEKVTMTCRASSSVIYVHWYQQKPGSSPKPWIYATSNLASGVPARFSGSGSGTSHSLTISRLEAEDTATYYCQQWSSNPLTFGAGTKLEIKR
In the case of B7, the binding entry in experiment [9] is “binds”.

The record behind these values is patent US20230071609A1.
